The amount applied is not stated for every result.
Tested on: people with T2DM aged ≥ 65 year
Assay: Patient-level meta-analysis of EDITION 1, 2 and 3, participants aged ≥ 65 year, 1 year
Settings: human, in vivo

Substance	Mean (SD) daily basal insulin dose increase from baseline to 1 year
insulin glargine [Gla-300]	0.35 (0.27) U/kg
insulin glargine [Gla-100]	0.23 (0.25) U/kg

— article PMC5907308, “21st Brazilian Diabetes Society Congress” (Diabetology & Metabolic Syndrome, 2018)
